Data taken from doi:10.1101/393272.
These are yes or no findings as the source states them, for the method shown. For some assays here: Binding seen in cells or lysates may run through a third protein. Some entries that bind do so weakly or less than the wild type. Sequences can lack the tags named with a protein.

T1: SUMO3, yeast two-hybrid fusion (Supplemental Fig. S1E) (Arabidopsis thaliana) (UniProt Q9FLP5)
T1 sequence: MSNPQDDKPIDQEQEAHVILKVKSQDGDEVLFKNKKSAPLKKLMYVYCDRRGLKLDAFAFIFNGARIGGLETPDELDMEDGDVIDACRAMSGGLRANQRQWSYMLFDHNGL

T2: SCFP^C-tagged SIZ1 (Arabidopsis thaliana) (UniProt Q680Q4)
T2 sequence: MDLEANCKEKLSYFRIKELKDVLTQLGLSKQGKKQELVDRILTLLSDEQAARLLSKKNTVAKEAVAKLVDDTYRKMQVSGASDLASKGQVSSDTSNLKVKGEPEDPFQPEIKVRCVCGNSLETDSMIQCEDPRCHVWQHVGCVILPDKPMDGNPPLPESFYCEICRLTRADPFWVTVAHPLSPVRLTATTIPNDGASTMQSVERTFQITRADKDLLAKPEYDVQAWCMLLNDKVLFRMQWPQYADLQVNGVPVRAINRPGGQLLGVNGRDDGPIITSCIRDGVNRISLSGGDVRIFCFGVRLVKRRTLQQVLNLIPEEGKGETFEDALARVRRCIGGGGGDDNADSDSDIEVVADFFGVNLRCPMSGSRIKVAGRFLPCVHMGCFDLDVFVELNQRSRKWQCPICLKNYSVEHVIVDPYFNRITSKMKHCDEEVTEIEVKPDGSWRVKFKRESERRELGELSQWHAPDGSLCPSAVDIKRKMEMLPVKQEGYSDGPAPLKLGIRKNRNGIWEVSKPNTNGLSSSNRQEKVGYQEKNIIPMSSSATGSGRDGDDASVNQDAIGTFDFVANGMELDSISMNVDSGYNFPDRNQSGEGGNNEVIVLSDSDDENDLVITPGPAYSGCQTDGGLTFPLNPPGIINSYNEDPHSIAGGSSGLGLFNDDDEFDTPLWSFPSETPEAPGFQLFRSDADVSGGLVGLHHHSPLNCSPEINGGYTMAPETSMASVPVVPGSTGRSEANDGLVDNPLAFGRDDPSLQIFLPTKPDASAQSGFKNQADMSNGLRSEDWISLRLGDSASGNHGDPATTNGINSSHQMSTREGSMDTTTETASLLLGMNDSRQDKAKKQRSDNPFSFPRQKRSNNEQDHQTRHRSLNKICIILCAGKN


Tests used:
[1] = target: T1, SUMO3, yeast two-hybrid fusion (Supplemental Fig. S1E) (Arabidopsis thaliana); assay: two-hybrid
[2] = target: T2, SCFP^C-tagged SIZ1 (Arabidopsis thaliana); assay: split reporter

Row | Binder | binding [1] | binding [2]
1 | SCE1 (SUMO E2 CONJUGATING ENZYME), GAL4 AD fusion (enzyme, UniProt Q42551 1-160) MASGIARGRLAEERKSWRKNHPHGFVAKPETGQDGTVNLMVWHCTIPGKAGTDWEGGFFPLTMHFSEDYPSKPPKCKFPQGFFHPNVYPSGTVCLSILNEDYGWRPAITVKQILVGIQDLLDTPNPADPAQTDGYHLFCQDPVEYKKRVKLQSKQYPALV | binds weakly | 
2 | SCFP^N-SCE1 (enzyme, UniProt Q42551 1-160) MASGIARGRLAEERKSWRKNHPHGFVAKPETGQDGTVNLMVWHCTIPGKAGTDWEGGFFPLTMHFSEDYPSKPPKCKFPQGFFHPNVYPSGTVCLSILNEDYGWRPAITVKQILVGIQDLLDTPNPADPAQTDGYHLFCQDPVEYKKRVKLQSKQYPALV |  | binds
